In the supplement of paper PMC10849652:
The list shows a part of the results.

Protein sequences, listed by entry. Tags and fused reporters are not part of them. Lines headed by an entry give the natural chain unless they say otherwise; changes in a name come on top.
UniProt Q9UGY1: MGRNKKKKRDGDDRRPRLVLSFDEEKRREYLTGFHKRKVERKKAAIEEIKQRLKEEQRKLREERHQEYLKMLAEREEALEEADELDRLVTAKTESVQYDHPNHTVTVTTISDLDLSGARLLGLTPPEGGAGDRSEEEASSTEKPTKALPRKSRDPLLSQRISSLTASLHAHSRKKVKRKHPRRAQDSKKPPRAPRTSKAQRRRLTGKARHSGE
UniProt P53384: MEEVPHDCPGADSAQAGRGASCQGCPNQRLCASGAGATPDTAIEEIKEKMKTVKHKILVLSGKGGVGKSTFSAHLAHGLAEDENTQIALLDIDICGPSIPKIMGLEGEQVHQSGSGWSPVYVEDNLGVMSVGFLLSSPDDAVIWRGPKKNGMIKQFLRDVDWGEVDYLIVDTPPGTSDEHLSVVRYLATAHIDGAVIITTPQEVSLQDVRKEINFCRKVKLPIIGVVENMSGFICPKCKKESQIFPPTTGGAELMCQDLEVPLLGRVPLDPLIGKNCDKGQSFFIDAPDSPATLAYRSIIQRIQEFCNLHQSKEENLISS
UniProt Q9H0G5: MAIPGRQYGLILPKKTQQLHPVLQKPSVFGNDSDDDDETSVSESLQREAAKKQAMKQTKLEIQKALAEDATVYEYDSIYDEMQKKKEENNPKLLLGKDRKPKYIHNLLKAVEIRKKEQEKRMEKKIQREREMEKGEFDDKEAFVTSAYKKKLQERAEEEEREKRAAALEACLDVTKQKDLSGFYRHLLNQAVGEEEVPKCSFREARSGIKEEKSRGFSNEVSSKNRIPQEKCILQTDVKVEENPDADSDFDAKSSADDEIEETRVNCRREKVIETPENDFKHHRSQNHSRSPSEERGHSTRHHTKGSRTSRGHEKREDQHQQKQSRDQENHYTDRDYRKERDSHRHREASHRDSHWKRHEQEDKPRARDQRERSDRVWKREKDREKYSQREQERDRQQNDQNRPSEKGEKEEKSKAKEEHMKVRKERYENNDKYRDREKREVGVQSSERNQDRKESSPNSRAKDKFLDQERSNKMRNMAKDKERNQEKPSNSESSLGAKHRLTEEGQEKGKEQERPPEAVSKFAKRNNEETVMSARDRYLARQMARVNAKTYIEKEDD
UniProt Q9UNZ2: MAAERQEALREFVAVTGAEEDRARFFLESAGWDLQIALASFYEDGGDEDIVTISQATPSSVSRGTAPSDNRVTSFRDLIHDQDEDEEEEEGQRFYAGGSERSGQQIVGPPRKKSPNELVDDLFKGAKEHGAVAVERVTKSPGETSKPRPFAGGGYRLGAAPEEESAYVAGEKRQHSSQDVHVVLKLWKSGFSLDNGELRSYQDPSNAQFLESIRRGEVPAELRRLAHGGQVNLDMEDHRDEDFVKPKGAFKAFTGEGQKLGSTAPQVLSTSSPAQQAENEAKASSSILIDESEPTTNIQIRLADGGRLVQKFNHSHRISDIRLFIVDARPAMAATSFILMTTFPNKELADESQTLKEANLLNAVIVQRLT
UniProt Q96P11: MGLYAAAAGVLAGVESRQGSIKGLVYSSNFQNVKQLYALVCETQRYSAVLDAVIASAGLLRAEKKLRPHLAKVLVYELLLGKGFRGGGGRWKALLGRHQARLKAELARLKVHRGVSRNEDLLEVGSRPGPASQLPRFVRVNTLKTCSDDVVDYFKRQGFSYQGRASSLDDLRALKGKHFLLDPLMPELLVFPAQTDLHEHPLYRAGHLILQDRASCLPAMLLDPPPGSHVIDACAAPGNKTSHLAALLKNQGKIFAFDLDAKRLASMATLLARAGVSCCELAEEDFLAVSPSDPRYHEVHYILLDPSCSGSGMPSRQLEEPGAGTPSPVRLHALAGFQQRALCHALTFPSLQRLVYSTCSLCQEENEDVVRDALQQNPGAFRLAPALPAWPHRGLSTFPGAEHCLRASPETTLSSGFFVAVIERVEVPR
UniProt Q8WTT2: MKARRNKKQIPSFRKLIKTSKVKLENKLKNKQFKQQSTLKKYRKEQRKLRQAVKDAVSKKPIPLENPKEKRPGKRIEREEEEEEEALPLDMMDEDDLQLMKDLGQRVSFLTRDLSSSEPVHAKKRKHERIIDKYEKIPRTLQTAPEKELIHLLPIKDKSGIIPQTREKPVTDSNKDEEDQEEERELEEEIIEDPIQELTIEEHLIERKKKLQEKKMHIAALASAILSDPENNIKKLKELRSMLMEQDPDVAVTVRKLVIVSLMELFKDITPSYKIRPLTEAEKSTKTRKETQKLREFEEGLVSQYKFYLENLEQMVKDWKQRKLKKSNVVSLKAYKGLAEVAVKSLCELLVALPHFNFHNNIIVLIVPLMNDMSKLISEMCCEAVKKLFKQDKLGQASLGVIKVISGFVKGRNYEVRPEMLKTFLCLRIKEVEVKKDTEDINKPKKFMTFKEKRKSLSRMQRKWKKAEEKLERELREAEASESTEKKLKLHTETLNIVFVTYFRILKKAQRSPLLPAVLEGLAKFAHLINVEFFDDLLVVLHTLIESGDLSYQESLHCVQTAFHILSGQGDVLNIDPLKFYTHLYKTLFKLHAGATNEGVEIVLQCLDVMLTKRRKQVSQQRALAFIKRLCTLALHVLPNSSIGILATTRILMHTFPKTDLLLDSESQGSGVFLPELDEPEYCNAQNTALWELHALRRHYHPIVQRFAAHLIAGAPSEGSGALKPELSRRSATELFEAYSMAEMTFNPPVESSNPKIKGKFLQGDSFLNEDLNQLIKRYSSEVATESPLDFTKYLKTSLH
UniProt Q96RS6: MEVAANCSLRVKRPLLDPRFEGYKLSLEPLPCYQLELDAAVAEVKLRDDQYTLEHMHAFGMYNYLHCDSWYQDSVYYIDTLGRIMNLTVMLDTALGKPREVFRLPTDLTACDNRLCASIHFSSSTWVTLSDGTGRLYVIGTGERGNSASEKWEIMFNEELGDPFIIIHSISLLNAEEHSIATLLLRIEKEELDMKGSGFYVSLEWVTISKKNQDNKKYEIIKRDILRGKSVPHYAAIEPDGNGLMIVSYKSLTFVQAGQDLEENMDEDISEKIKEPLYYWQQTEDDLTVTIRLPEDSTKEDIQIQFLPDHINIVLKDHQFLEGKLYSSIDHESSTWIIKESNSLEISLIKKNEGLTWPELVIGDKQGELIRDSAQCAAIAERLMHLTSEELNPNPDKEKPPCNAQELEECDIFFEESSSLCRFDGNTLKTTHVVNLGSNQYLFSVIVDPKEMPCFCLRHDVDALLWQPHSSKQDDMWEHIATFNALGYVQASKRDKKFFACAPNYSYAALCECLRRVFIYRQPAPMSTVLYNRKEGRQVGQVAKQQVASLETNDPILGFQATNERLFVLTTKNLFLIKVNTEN
UniProt Q5JPE7: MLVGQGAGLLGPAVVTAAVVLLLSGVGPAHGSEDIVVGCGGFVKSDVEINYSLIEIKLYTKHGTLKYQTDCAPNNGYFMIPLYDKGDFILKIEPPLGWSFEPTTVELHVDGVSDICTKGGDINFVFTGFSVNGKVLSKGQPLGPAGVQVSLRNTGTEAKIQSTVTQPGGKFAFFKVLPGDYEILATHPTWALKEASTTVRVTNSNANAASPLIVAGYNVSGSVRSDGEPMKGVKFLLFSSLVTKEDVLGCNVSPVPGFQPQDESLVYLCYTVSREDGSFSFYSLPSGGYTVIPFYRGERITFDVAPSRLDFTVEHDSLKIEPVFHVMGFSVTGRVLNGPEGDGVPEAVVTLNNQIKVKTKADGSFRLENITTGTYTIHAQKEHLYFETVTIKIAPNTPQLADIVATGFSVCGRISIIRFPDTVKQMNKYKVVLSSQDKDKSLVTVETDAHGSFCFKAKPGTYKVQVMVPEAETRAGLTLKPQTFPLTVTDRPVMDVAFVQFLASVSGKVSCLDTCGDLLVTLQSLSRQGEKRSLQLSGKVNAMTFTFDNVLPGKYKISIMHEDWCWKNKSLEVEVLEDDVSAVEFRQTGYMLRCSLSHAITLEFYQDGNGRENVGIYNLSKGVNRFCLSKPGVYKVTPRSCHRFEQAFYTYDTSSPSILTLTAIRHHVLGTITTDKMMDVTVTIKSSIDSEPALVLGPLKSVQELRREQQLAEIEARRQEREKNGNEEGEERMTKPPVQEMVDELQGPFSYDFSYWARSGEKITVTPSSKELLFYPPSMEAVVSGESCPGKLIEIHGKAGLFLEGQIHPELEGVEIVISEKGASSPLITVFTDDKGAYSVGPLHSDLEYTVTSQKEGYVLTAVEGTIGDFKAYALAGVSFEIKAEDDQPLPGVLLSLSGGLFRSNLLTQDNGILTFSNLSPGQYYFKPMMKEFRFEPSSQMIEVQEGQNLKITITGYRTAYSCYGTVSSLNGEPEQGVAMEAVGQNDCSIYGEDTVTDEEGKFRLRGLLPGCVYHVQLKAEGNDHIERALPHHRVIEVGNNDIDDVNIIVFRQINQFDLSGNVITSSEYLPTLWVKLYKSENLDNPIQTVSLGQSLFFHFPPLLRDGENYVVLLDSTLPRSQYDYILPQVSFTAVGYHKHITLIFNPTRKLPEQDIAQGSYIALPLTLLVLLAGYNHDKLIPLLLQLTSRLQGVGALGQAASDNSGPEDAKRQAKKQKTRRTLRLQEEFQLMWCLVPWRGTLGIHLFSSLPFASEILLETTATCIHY
UniProt Q9NV35: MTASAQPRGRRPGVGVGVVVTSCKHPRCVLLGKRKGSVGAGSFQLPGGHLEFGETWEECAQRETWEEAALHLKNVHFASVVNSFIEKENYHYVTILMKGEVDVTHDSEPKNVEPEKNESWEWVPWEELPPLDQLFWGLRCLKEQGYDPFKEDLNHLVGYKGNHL
UniProt Q15738: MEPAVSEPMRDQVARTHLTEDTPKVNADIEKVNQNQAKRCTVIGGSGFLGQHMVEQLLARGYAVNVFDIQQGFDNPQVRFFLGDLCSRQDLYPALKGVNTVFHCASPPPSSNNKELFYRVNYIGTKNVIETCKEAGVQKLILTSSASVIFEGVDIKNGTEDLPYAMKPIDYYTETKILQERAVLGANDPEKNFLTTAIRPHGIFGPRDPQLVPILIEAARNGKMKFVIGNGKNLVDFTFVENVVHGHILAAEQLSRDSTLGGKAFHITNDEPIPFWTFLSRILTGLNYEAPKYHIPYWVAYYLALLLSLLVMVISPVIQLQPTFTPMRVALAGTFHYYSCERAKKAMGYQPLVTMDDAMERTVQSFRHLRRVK
UniProt Q08J23, whole entry, looked up: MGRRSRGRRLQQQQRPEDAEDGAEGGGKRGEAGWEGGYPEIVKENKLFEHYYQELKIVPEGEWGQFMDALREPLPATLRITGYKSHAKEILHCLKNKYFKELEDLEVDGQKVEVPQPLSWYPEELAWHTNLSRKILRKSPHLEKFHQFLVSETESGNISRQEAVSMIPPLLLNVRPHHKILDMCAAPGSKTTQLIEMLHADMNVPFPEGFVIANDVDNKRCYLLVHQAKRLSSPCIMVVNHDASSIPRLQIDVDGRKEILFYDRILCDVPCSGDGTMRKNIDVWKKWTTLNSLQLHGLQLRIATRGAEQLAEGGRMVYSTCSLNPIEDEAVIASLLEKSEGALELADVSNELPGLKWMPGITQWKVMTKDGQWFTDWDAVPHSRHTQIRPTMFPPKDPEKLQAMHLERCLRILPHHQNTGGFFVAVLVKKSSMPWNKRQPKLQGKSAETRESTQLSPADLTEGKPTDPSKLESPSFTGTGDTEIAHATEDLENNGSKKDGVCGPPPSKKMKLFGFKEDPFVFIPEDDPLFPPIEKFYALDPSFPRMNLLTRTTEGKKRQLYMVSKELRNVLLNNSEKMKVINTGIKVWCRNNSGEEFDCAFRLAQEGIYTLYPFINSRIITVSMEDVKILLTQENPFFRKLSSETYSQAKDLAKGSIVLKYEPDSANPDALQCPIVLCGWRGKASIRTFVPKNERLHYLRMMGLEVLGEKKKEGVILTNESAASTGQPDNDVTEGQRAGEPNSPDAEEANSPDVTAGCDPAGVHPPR
UniProt Q5TFE4: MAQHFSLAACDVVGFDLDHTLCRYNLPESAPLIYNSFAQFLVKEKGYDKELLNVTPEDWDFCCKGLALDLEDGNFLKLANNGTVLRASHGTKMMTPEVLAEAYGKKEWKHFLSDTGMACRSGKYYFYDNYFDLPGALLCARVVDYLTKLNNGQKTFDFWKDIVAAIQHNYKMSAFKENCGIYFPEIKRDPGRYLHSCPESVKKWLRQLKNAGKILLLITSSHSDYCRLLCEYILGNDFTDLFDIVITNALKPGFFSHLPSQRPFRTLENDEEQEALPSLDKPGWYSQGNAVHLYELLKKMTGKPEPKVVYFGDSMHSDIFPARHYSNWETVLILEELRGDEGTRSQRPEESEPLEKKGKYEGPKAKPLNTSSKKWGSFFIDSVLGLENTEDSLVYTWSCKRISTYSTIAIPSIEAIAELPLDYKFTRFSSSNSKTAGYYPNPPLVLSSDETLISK

Compound: C[C@H](Nc1ncnc2nc[nH]c12)c1cc2cccc(Cl)c2c(=O)n1-c1ccccc1 [duvelisib]
Test: log2 fold change, soluble protein after heating vs DMSO (PISA); higher = thermal stabilisation; K562 lysate, 10 uM; active = over 0.2 and 3.5 SD of the protein, either way, in both replicates (recomputed)
How it was run: (§1)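 Dounce homogenisation of K562 pellets in PBS pH 7.4 with 1 mM MgCl2 produced a crude extract, used at 1 mg/mL protein. Exposure to 10 μM compound lasted 30 min, and aliquots were then heated for 3 min across 48°C-58°C, pooled and brought to 0.5% NP-40 at 4°C. The supernatant after 21,000xg for 90 min was quantified by TMTpro 16plex LC-MS/MS with channel sums equalised. Duplicate values are given as log-two fold change in thermal stability relative to solvent controls.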

log2 fold change, inactive:
NUDT5 (UniProt Q9UKK9) 0.051
NOL12 (UniProt Q9UGY1) 0.011
NUBP1 (UniProt P53384) -0.004
NUMBL (UniProt Q9Y6R0) 0.162
NUDT12 (UniProt Q9BQG2) 0.004
NMNAT1 (UniProt Q9HAN9) 0.007
NT5C2 (UniProt P49902) -0.025
NSRP1 (UniProt Q9H0G5) 0.02
NUDT4 isoform 2 (UniProt Q9NZJ9) -0.013
NSL1 (UniProt Q96IY1) -0.033
NSFL1C isoform 5 (UniProt Q9UNZ2) -0.006
NSUN5 isoform 2 (UniProt Q96P11) -0.008
NRAS (UniProt P01111) 0.003
NOC3L (UniProt Q8WTT2) -0.016
NMD3 (UniProt Q96D46) 0.008
NSMCE4A (UniProt Q9NXX6) -0.046
NUDCD1 (UniProt Q96RS6) -0.01
NOMO2 (UniProt Q5JPE7) -0.02
NOA1 (UniProt Q8NC60) 0.014
NOP53 (UniProt Q9NZM5) 0.036
NOSIP (UniProt Q9Y314) -0.004
NUDCD2 (UniProt Q8WVJ2) 0.014
NSF (UniProt P46459) 0.019
NUMA1 (UniProt Q14980) 0.021
NME2 isoform 2 (UniProt P22392) 0.006
NUDT15 (UniProt Q9NV35) 0.006
NT5C (UniProt Q8TCD5) 0.025
NSDHL (UniProt Q15738) 0.047
NSUN2 (UniProt Q08J23) -0.005
NT5DC1 (UniProt Q5TFE4) -0.019
NRBP2 (UniProt Q9NSY0) -0.029
NT5DC2 isoform 2 (UniProt Q9H857) -0.01

Compound: Cc1cc(Nc2cc(CN3CCOCC3)c3nc(C)c(Cc4ccc(Cl)cc4F)n3n2)n[nH]1 [gandotinib]
Test: as above
How it was run: as §1

log2 fold change, inactive:
NUDT5 (UniProt Q9UKK9) 0.211
NOL12 (UniProt Q9UGY1) 0.012
NUBP1 (UniProt P53384) -0.012
NUMBL (UniProt Q9Y6R0) 0.176
NUDT12 (UniProt Q9BQG2) -0.047
NMNAT1 (UniProt Q9HAN9) -0.013
NT5C2 (UniProt P49902) -0.008
NSRP1 (UniProt Q9H0G5) -0.022
NUDT4 isoform 2 (UniProt Q9NZJ9) 0.061
NSL1 (UniProt Q96IY1) 0.094
NSFL1C isoform 5 (UniProt Q9UNZ2) 0.036
NSUN5 isoform 2 (UniProt Q96P11) -0.018
NRAS (UniProt P01111) 0.004
NOC3L (UniProt Q8WTT2) -0.02
NMD3 (UniProt Q96D46) 0.019
NSMCE4A (UniProt Q9NXX6) -0.022
NUDCD1 (UniProt Q96RS6) 0.015
NOMO2 (UniProt Q5JPE7) 0.007
NOA1 (UniProt Q8NC60) 0.039
NOP53 (UniProt Q9NZM5) -0.053
NOSIP (UniProt Q9Y314) 0.017
NUDCD2 (UniProt Q8WVJ2) 0.049
NSF (UniProt P46459) -0.105
NUMA1 (UniProt Q14980) -0.024
NME2 isoform 2 (UniProt P22392) 0.049
NUDT15 (UniProt Q9NV35) 0.016
NT5C (UniProt Q8TCD5) -0.029
NSDHL (UniProt Q15738) 0.18
NSUN2 (UniProt Q08J23) -0.05
NT5DC1 (UniProt Q5TFE4) 0.037
NRBP2 (UniProt Q9NSY0) 0.019
NT5DC2 isoform 2 (UniProt Q9H857) 0.021

Compound: Cc1cc(Nc2cc(N3CCN(C)CC3)nc(Sc3ccc(NC(=O)C4CC4)cc3)n2)n[nH]1 [tozasertib]
Test: as above
How it was run: as §1

log2 fold change, inactive:
NUDT5 (UniProt Q9UKK9) -0.018
NOL12 (UniProt Q9UGY1) 0.034
NUBP1 (UniProt P53384) 0.007
NUMBL (UniProt Q9Y6R0) 0.036
NUDT12 (UniProt Q9BQG2) 0.04
NMNAT1 (UniProt Q9HAN9) 0.001
NT5C2 (UniProt P49902) -0.05
NSRP1 (UniProt Q9H0G5) -0.04
NUDT4 isoform 2 (UniProt Q9NZJ9) 0.065
NSL1 (UniProt Q96IY1) -0.01
NSFL1C isoform 5 (UniProt Q9UNZ2) 0.017
NSUN5 isoform 2 (UniProt Q96P11) 0.034
NRAS (UniProt P01111) -0.013
NOC3L (UniProt Q8WTT2) -0.041
NMD3 (UniProt Q96D46) -0.037
NSMCE4A (UniProt Q9NXX6) 0.055
NUDCD1 (UniProt Q96RS6) 0.007
NOMO2 (UniProt Q5JPE7) -0.026
NOA1 (UniProt Q8NC60) -0.034
NOP53 (UniProt Q9NZM5) 0.118
NOSIP (UniProt Q9Y314) -0.053
NUDCD2 (UniProt Q8WVJ2) 0.031
NSF (UniProt P46459) 0.014
NUMA1 (UniProt Q14980) 0
NME2 isoform 2 (UniProt P22392) -0.026
NUDT15 (UniProt Q9NV35) 0.056
NT5C (UniProt Q8TCD5) -0.001
NSDHL (UniProt Q15738) 0.007
NSUN2 (UniProt Q08J23) -0.011
NT5DC1 (UniProt Q5TFE4) -0.022
NRBP2 (UniProt Q9NSY0) -0.049
NT5DC2 isoform 2 (UniProt Q9H857) -0.019
